Results from paper PMC12139522.
These are yes or no findings as the source states them, for the method shown. Binding seen in cells or lysates may run through a third protein. Some entries that bind do so weakly or less than the wild type. Tags and fused reporters may be left off the sequences shown. Values belong to the binder of their own block, whether it stands above or below them.

Columns and labels:
Assay in all cases: co-IP; HEK293 cells co-transfected, lysed in RIPA buffer pH 7.4 (50 mM HEPES, 150 mM NaCl, 1% Triton X-100, 1 mM EDTA); anti-Myc or anti-HA agarose beads; western blot
[1] = target: Myc-TPRN (full-length mouse taperin, N-terminal Myc tag) (mouse) (UniProt A2AI08)
Myc-TPRN^1–170 (mouse) = Myc-TPRN^1–170 (mouse) (UniProt A2AI08)
Myc-TPRN^411–622 (mouse) = Myc-TPRN^411–622 (mouse) (UniProt A2AI08)
Myc-TPRN^171–410 (mouse) = Myc-TPRN^171–410 (mouse) (UniProt A2AI08)
Myc-TPRN^623–749 (mouse) = Myc-TPRN^623–749 (mouse) (UniProt A2AI08)
Myc-TPRN^1–410 (mouse) = Myc-TPRN^1–410 (mouse) (UniProt A2AI08)
Myc-TPRN^411–749 (mouse) = Myc-TPRN^411–749 (mouse) (UniProt A2AI08)

binding [1]: binds
B1: Myc-TPRN (full-length mouse taperin, N-terminal Myc tag) (protein, UniProt A2AI08 1-749)
chain: MAGLGRLDPGPRTVMPAWKREILERRRAKLAALSGGQGSGAAPDGPNERLVLAESLGPLSQNPFMRLESERRRGTRPAQQLLELYCRVPGVRTIRADNILIIESAPGFPPAVPPAAGIRAAEVVVYEAPQPGRVSRLLEKFDSPAAPCRRGSPERFRPALPQLPVASASAATRTPTNRSLAPASPVRLSQPAPPISPVPVAQRAGQRSACCEPAHPDGTAGPGARRSDFLQKTGSNSFTVHPRGLPRSAVNRSLSNGPMTQESPTGPANGLSGSPPVPGKWKPKVESKEPSLHPPPSPGTPSATSVGPPAFPAPSPASATPSQRQWVSSATSANDSFEIRPSSKPDMETIPIGDLQARALANLRVNSRNSFVLIPKRKAPGNYPLAGRQFEEPKGEVGWASQSQGLGSQLVSTVDGAPALEKSPLAAEMQWAVRKGACPRPAISDTDKCVRWQRPASPPPFLPATAEAEPAEGLGVPGLAKNGQEPVRPGLPVTFIDEVDSEEEAFQEAKLPSSAVGVPSQYHLHPARPGHTSELLNRGSNTFTVVPKRKPGTLQEPHLSQTNGQSQQGAEEQDAESLSGPHTTLENTLKKRYPTVHEIEVIGGYLALQKSCLIKAGSSRKKMKISFNDKSLHTTFEYPSESSLAQEEAEEEEEEEGEEDGEEEEVGPDSEKPFTVFLPRATFVSSVGPESSSGLSSYTPKHSMAFSKWQEQTLVQTPTDVELPPKEVMLTPASQNDLSDFRSEPALYF

binding (Myc-TPRN^1–170 (mouse)): binds
B2: Myc-TPRN^1–170 (domain or fragment, UniProt A2AI08 1-170)
chain: MAGLGRLDPGPRTVMPAWKREILERRRAKLAALSGGQGSGAAPDGPNERLVLAESLGPLSQNPFMRLESERRRGTRPAQQLLELYCRVPGVRTIRADNILIIESAPGFPPAVPPAAGIRAAEVVVYEAPQPGRVSRLLEKFDSPAAPCRRGSPERFRPALPQLPVASASA

binding (Myc-TPRN^411–622 (mouse)): binds
B3: Myc-TPRN^411–622 (domain or fragment, UniProt A2AI08 411-622)
chain: VSTVDGAPALEKSPLAAEMQWAVRKGACPRPAISDTDKCVRWQRPASPPPFLPATAEAEPAEGLGVPGLAKNGQEPVRPGLPVTFIDEVDSEEEAFQEAKLPSSAVGVPSQYHLHPARPGHTSELLNRGSNTFTVVPKRKPGTLQEPHLSQTNGQSQQGAEEQDAESLSGPHTTLENTLKKRYPTVHEIEVIGGYLALQKSCLIKAGSSRKK

binding (Myc-TPRN^171–410 (mouse)): binds
B4: Myc-TPRN^171–410 (domain or fragment, UniProt A2AI08 171-410)
chain: ATRTPTNRSLAPASPVRLSQPAPPISPVPVAQRAGQRSACCEPAHPDGTAGPGARRSDFLQKTGSNSFTVHPRGLPRSAVNRSLSNGPMTQESPTGPANGLSGSPPVPGKWKPKVESKEPSLHPPPSPGTPSATSVGPPAFPAPSPASATPSQRQWVSSATSANDSFEIRPSSKPDMETIPIGDLQARALANLRVNSRNSFVLIPKRKAPGNYPLAGRQFEEPKGEVGWASQSQGLGSQL

binding (Myc-TPRN^623–749 (mouse)): binds
B5: Myc-TPRN^623–749 (domain or fragment, UniProt A2AI08 623-749)
chain: MKISFNDKSLHTTFEYPSESSLAQEEAEEEEEEEGEEDGEEEEVGPDSEKPFTVFLPRATFVSSVGPESSSGLSSYTPKHSMAFSKWQEQTLVQTPTDVELPPKEVMLTPASQNDLSDFRSEPALYF

binding (Myc-TPRN^1–410 (mouse)): binds
B6: Myc-TPRN^1–410 (domain or fragment, UniProt A2AI08 1-410)
chain: MAGLGRLDPGPRTVMPAWKREILERRRAKLAALSGGQGSGAAPDGPNERLVLAESLGPLSQNPFMRLESERRRGTRPAQQLLELYCRVPGVRTIRADNILIIESAPGFPPAVPPAAGIRAAEVVVYEAPQPGRVSRLLEKFDSPAAPCRRGSPERFRPALPQLPVASASAATRTPTNRSLAPASPVRLSQPAPPISPVPVAQRAGQRSACCEPAHPDGTAGPGARRSDFLQKTGSNSFTVHPRGLPRSAVNRSLSNGPMTQESPTGPANGLSGSPPVPGKWKPKVESKEPSLHPPPSPGTPSATSVGPPAFPAPSPASATPSQRQWVSSATSANDSFEIRPSSKPDMETIPIGDLQARALANLRVNSRNSFVLIPKRKAPGNYPLAGRQFEEPKGEVGWASQSQGLGSQL

binding (Myc-TPRN^411–749 (mouse)): binds
B7: Myc-TPRN^411–749 (domain or fragment, UniProt A2AI08 411-749)
chain: VSTVDGAPALEKSPLAAEMQWAVRKGACPRPAISDTDKCVRWQRPASPPPFLPATAEAEPAEGLGVPGLAKNGQEPVRPGLPVTFIDEVDSEEEAFQEAKLPSSAVGVPSQYHLHPARPGHTSELLNRGSNTFTVVPKRKPGTLQEPHLSQTNGQSQQGAEEQDAESLSGPHTTLENTLKKRYPTVHEIEVIGGYLALQKSCLIKAGSSRKKMKISFNDKSLHTTFEYPSESSLAQEEAEEEEEEEGEEDGEEEEVGPDSEKPFTVFLPRATFVSSVGPESSSGLSSYTPKHSMAFSKWQEQTLVQTPTDVELPPKEVMLTPASQNDLSDFRSEPALYF
